The assay concerns the target Ninl (human Ninl aa 1-702), HaloTag (human) (UniProt Q9Y2I6). The assay is described as follows: pull-down.

Sequences of proteins named here, by UniProt entry; tags and fusion partners are left off. A change or cut given only in a name is not applied to a line headed by its entry. Residues count along the entry.
UniProt Q9Y2I6, residues 1-702: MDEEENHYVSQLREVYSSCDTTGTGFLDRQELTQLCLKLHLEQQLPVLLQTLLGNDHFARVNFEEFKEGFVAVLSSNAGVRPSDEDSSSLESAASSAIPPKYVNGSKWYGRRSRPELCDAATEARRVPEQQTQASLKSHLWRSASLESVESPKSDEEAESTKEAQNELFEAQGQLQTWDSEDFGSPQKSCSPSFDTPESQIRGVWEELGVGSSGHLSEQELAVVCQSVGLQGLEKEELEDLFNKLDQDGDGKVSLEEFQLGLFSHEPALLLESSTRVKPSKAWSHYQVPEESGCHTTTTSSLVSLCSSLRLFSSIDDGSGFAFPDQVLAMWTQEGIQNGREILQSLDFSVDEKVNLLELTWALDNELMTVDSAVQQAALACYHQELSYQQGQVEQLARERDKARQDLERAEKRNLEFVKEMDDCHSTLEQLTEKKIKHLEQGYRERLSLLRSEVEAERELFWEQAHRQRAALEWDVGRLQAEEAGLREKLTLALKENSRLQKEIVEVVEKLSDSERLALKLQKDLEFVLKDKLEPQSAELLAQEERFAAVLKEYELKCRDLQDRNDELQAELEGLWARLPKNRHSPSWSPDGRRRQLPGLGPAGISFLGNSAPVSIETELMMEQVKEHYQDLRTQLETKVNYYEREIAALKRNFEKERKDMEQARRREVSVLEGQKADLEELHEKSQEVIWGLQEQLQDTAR
UniProt Q13409: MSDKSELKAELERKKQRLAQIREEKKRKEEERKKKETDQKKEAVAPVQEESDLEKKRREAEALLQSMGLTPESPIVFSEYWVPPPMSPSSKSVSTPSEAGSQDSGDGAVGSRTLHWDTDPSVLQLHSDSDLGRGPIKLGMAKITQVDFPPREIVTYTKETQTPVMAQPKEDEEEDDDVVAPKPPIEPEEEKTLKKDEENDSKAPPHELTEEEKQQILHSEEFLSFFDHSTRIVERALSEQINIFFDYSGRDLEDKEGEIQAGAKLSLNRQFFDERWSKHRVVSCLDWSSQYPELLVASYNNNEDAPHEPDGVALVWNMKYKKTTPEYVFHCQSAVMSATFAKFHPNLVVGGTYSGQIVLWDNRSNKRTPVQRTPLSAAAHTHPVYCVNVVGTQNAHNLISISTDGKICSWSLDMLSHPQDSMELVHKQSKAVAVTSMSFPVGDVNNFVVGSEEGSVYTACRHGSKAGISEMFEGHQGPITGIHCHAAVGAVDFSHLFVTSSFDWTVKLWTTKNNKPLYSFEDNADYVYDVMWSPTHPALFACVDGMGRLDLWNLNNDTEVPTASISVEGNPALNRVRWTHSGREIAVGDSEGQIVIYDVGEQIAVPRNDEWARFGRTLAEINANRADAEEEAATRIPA
UniProt O43237: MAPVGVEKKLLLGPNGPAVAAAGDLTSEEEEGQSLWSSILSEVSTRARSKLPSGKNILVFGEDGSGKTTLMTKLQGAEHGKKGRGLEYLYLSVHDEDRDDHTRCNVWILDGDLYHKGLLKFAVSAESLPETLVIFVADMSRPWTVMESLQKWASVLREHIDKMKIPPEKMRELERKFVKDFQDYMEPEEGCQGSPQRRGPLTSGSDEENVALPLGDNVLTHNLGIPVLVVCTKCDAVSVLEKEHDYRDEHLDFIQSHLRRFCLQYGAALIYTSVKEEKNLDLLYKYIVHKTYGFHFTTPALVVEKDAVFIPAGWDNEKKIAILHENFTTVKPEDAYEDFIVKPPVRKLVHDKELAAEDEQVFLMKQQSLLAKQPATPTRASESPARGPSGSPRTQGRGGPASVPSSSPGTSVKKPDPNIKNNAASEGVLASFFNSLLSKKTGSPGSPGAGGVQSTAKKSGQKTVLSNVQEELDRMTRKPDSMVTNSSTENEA
UniProt P63172: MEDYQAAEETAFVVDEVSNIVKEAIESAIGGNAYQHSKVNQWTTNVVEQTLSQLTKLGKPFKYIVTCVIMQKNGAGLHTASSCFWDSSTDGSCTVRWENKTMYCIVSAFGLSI
UniProt P63167: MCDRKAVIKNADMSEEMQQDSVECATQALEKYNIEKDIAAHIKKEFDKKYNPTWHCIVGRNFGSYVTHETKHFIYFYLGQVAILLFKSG
UniProt Q9NP97: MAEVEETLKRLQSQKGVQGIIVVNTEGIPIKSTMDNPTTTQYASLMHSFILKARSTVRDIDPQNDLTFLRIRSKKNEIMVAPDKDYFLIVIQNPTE

Results are given in words; binding and its absence hold for the method and conditions named. Some results given as binding are weak or reduced against the parent protein; the word gives no strength.

For the substance “human full-length cytoplasmic dynein-1 (dynein), wild type (from UniProt Q14204;Q13409;O43237;P63172;P63167;Q9NP97) (complex)”, the binding entry is reported as “binds”.

The values above are taken from article doi:10.1101/683052.
